The text below walks through data of article PMC3898117.

Sequences of proteins named here, by UniProt entry; tags and fusion partners are left off. A change or cut given only in a name is not applied to a line headed by its entry. A line that says so, or that is headed by a name, gives the form on record, which may keep a tag or linker.
UniProt Q92973: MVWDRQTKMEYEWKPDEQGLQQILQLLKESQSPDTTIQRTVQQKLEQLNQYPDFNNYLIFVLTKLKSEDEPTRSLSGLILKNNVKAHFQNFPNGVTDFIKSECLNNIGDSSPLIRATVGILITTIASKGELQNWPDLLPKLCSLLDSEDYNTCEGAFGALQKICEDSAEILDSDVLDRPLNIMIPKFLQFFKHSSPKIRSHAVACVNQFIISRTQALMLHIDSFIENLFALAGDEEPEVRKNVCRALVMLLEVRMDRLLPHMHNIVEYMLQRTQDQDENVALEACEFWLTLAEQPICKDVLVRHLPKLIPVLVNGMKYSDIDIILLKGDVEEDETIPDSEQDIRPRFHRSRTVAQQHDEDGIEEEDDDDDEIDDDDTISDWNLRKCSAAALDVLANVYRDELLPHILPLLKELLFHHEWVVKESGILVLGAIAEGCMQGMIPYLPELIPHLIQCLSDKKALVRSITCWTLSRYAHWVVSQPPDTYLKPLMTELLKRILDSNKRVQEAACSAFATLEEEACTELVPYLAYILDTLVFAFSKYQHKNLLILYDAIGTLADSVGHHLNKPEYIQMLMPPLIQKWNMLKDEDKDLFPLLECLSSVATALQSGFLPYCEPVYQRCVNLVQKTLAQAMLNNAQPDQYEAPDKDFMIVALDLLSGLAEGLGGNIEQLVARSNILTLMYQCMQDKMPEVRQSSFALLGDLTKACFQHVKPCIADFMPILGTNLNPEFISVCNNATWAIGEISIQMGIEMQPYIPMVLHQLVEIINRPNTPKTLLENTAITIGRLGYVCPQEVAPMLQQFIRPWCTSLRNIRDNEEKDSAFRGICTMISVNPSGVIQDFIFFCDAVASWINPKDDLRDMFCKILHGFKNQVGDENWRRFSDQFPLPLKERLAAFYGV
UniProt Q9BTL3: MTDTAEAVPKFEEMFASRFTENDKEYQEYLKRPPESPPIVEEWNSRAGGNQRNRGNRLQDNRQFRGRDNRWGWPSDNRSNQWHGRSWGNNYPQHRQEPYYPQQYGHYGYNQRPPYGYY
RAM–GFP PY2AA (Q9BTL3, form named): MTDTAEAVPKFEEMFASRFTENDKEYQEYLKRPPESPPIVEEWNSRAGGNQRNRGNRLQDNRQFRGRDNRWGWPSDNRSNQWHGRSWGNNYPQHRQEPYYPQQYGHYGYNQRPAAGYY

Test [1] concerns the target Myc–Kapβ2 (UniProt Q92973). In words: co-IP; HeLa cells transfected with Myc-Kapβ2 and RAM-GFP, PY/AA mutants or GFP; precipitation from cell extracts with anti-Myc (9E10) antibodies; blots for Myc–Kapβ2 and RAM.
Test [2] has as its target GST–RAM WT (RNMT-activating mini-protein, wild type) (human) (UniProt Q9BTL3). In words: pull-down; 0.5 nmol GST–RAM with 0.2 nmol Kapβ2 in TB buffer (20 mM Hepes pH 7.3, 10 mM potassium acetate, 2 mM magnesium acetate, 2 mM EGTA, 2 mM DTT, 20% glycerol); glutathione–Sepharose; Western blotting; both purified. (In western blotting, separated proteins are transferred to a membrane and probed.)

No constants are given. Whether binding was seen depends on the method and setting. For part of these data: In cells and extracts the contact can be indirect. Some binding calls cover weakened binding; strength is not graded here.

“RAM–GFP PY2AA (from UniProt Q9BTL3 1-118)”: the binding entry in test [1] is “binds”. For “recombinant Kapβ2 (karyopherin β2) (from UniProt Q92973 1-898)”, the binding entry in test [2] is listed as “binds”.

Regarding RAM–GFP WT (from UniProt Q9BTL3 1-118), in test [1], the binding result is reported as “binds”.
